These results are taken from publication PMC8575914.

No constants are given. Whether binding was seen depends on the method and setting. In cells and extracts the contact can be indirect. Binding calls can cover weak binding; strength is not graded here. Sequences can lack the tags named with a protein.

The target of the test is T1, FLAG-MORC2a (mouse) (UniProt Q69ZX6).
T1 sequence: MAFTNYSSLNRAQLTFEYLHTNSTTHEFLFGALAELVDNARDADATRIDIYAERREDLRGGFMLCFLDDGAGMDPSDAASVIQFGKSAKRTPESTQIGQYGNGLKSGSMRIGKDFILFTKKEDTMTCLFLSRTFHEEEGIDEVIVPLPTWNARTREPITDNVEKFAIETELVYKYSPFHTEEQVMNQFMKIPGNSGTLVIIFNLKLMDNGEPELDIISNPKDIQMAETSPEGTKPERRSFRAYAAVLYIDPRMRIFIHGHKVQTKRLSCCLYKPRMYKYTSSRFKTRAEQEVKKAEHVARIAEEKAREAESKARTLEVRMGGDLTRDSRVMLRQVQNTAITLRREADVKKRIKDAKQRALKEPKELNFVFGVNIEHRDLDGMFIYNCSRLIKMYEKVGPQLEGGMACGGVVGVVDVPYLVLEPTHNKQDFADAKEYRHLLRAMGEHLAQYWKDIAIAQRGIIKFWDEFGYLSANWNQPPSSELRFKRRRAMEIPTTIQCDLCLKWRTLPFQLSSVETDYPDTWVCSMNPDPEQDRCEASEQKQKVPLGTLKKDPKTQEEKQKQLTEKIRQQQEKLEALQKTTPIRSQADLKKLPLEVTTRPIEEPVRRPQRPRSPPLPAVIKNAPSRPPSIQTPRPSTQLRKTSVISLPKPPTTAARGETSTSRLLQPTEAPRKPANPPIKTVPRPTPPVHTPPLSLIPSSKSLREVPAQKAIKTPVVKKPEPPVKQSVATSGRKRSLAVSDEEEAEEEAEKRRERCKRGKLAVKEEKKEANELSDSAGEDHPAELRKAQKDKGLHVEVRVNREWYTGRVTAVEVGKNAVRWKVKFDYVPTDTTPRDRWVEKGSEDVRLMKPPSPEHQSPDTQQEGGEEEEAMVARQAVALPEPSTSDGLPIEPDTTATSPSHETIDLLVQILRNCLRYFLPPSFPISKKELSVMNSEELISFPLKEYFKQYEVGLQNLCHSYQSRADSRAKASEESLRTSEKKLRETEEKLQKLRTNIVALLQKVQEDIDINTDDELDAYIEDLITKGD
Kind of test: co-IP; anti-FLAG affinity gel, 6 h, on precleared lysates of cells ectopically expressing the tagged proteins; rinsed four times in lysis buffer (50 mM HEPES pH 8.0, 150 mM NaCl, 0.5% Triton-X 100); western blot. Background: In western blotting, separated proteins are transferred to a membrane and probed.

Take GFP-LIPIN1: the binding entry was “binds”.
For GFP-LIPIN2, the binding result is recorded as “binds”.
On to GFP-LIPIN3, for which the binding result is recorded as “binds”.
